These results are taken from PMC10193302.

Results are given in words; binding and its absence hold for the method and conditions named. In cells and extracts the contact can be indirect. These calls come from enrichment with a bait or labelling near it, and not all partners need be listed. Sequences can lack the tags named with a protein.

Assay [1] addresses T1, 3xFlag-tagged Tbl1x (transducin (beta)-like 1 X-linked), construct PiggyBac-CAG-Avi-Tbl1x-3xFlag-ires-Neo (UniProt Q9QXE7).
T1 sequence: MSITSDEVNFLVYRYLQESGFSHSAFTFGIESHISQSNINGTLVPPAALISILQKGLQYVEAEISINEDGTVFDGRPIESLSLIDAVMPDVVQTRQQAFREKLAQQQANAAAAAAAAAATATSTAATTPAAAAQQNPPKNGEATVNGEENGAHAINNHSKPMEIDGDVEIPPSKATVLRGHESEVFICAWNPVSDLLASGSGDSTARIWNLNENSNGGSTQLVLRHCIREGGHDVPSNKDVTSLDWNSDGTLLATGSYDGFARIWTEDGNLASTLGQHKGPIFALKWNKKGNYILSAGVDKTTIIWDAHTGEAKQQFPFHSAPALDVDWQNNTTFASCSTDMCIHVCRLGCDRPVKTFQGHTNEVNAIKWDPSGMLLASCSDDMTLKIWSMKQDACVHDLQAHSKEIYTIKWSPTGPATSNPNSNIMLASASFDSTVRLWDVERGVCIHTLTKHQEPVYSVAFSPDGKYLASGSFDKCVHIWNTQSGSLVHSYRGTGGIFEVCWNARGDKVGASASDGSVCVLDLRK
Put plainly: affinity purification with mass spectrometry; anti-FLAG M2 agarose on nuclear extract of TSCs stably expressing Tbl1x-3xFlag, after 3 h PD0325901 or 48 h withdrawal of Fgf and CM with CHIR99021; 3 h at 4 C with Benzonase, buffer D (20 mM Hepes pH 7.6, 20% glycerol, 100 mM KCl); compared to an empty vector line, n = 3.

The target of assay [2] is T2, 3xFlag-tagged Erf (Ets2 repressor factor), construct PiggyBac-CAG-Avi-Erf-3xFlag-ires-Neo (mouse) (UniProt P70459).
T2 sequence: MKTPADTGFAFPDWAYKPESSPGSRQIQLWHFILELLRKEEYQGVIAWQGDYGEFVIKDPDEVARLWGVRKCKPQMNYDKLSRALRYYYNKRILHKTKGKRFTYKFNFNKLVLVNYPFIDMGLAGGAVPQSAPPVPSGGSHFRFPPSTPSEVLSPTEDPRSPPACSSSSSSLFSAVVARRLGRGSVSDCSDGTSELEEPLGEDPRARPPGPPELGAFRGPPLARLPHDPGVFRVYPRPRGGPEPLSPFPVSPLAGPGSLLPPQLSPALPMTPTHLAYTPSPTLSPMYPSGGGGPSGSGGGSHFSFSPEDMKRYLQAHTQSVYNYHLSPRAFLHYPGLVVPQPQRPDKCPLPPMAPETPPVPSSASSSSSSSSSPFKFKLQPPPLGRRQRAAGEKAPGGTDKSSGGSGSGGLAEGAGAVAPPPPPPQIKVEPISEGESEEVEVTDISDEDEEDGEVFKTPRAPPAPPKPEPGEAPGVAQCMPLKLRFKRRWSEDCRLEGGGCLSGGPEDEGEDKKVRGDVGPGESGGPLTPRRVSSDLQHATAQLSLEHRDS
Put plainly: affinity purification with mass spectrometry; anti-FLAG M2 agarose on nuclear extract of TSCs stably expressing Erf-3xFlag, treated with PD0325901 for 3 h and 24 h; 3 h at 4 C with Benzonase, buffer D (20 mM Hepes pH 7.6, 20% glycerol, 100 mM KCl); compared to an empty vector line, n = 3.

B1: Setd5 (protein, UniProt Q5XJV7 1-1441)
chain: MSIAIPLGVTTPDTSYSDMAAGSDPESVEASPAVNEKSVYSTHNYGTTQRHGCRGLPYATIIPRSDLNGLPSPVEERCGDSPNSEGETVPTWCPCGLSQDGFLLNCDKCRGMSRGKVIRLHRRKQDNISGGDSSATESWDEELSPSTVLYTATQHTPTSITLTVRRTKPKKRKKSPEKGRAAPKTKKIKNSPSEAQNLDENTTEGWENRIRLWTDQYEEAFTNQYSADVQNALEQHLHSNKEFVGKPAILDTINKTELACNNTVIGSQMQLQLGRVTRVQKHRKILRAARDLALDTLIIEYRGKVMLRQQFEVNGHFFKKPYPFVLFYSKFNGVEMCVDARTFGNDARFIRRSCTPNAEVRHMIADGMIHLCIYAVSAITKDAEVTIAFDYEYSNCNYKVDCACHKGNRNCPIQKRNPNAAELPLPPPPSFPTIGAETRRRKARRKELELEQQNEVPEENPDPQPQEVPEKVTVSNEHEEVDNPEEKPEEEEKEEATDDQENSAHSRRTREDRKVEAIMHAFESLEKRKKRRDQPVEQSSSDIEITTSSSEIVVGEETKTAAPESEVSSPVSNVAIPSTPQSTGVNTRRSSHAGDVAAEKPIPKPPPAKPSRPRPKSRISRYRTSSAQRLKRQKQAIAQQAELSQAALEEGGSNNSVTPPEAGNTDSSGENRQLTGSDPTVISVTGSHVNRAASKYPKTKKYLVTEWLNDKAEKQECPVECPLRITTDPTVLATTLNMLPGLIHSPLICTTPKHYIRFGSPFMPERRRRPLLPDGTFSSCKKRWIKQALEEGMTQTSSVPQETRTQHLYQSNETSNSSSICKDNADLLSPLKKWKSRYLMEQNITKLLQPLSPVTPPPPSSGSKSPQLTTPGQTHPGEEECRNGYSLMFSPITSLTTASRSNTPLQFELCHRKDLDLTKVGFPDSSTHSCADRPSLLNCNHPDLASHPSVVPTSEAGFPSRSGDGPQTLLRNSDQAFRTEFNLMYAYSPLNAMPRADGLYRGSPLVGDRKPLHLDGGYCSPAEGFSSRYEHGFMKDLSRGSMSPGGERTCEGVPSAPQNPPQRKKVSLLEYRKRKQEAKENSGGGNDSSQSKSKSSGAGQGSSNSVSDTGAHGVQGSSAGTPSSPHKKFSPSHSSASHLEAVSPSDSRGTSSSHCRPQENISSRWMVPTSVERLREGGSIPKVLRSSVRVAQKGEPSPTWESNITEKESDPADGEGPEPLSSALSKGATVYSPSRYSYQLLQCDSPRTESQSLLQQSSSPFRGHPTQSPGYSYRTTALRPGNPPSHGSSESSLSSTSYPSPAHPVSTDSLAPFTGTPGYYSSQPHSGNSTGSNLPRRSCSSSAASPTPQGPSDSPTSDSVSQSSTGTLSSTSFPQNSRSSLPSDLRTISLPNAGQSAAYQASRVSAVSNSQHYPHRGSGGVHQYRLQPLQGSGVKTQTGLS
Regarding B1, the binding entry in assay [1] and in assay [2] was “binds” throughout.
